No constants are given. Whether binding was seen depends on the method and setting. Some binding calls cover weakened binding; strength is not graded here.
Tests used:
[1] = target: human TNFR2, mouse Fc-tag (human); assay: blocking ELISA: hTNFR2-mFc binding to coated TNF-alpha his tag; right panel [a]
[2] = target: human TNFR2, mouse Fc-tag (human); assay: blocking ELISA: hTNFR2-mFc binding to coated TNF-alpha his tag; right panel [b]
[3] = target: Human TNFR2, human Fc tag protein (human); assay: ELISA on coated huTNFR2-huFc; middle panel
[4] = target: Human TNFR2, human Fc tag protein (human); assay: ELISA on coated huTNFR2-huFc; top panel
[5] = target: human TNFR2, mouse Fc-tag (human); assay: ELISA on coated human TNFR2-mFc; left panel [a]
[6] = target: human TNFR2, mouse Fc-tag (human); assay: ELISA on coated human TNFR2-mFc; left panel [b]
[7] = target: Cynomolgus TNFR2, human Fc tag protein (cynomolgus); assay: ELISA, TNFR2-huFc coated (figure legend)
[8] = target: Human TNFR2, human Fc tag protein (human); assay: ELISA, TNFR2-huFc coated (figure legend)

| Binder | binding [1] | binding [2] | binding [3] | binding [4] | binding [5] | binding [6] | binding [7] | binding [8] |
| --- | --- | --- | --- | --- | --- | --- | --- | --- |
| negative control IgG (antibody, V domains shown) VH: QVQLVESGGGAVQPGRSLRLSCAASGFTFSSYGMHWVRQAPGKGLEWVAVILYDGSDKFYADSVKGRFTISRDNSKNTLYLQMNSLRAEDTAVYYCAKVAVAGTHFDYWGQGTLVTVSS VL: DIQMTQSPSSLSASVGDRVTITCRASQGIRNDLGWYQQKPGKAPKLLIYAASSLQSGVPSRFSGSGSGTDFTLTISSLQPEDFATYYCQQLNSYPPTFGGGTKVEIKR | no binding (tested: about 7 nM) | no binding (tested: about 7 nM) | no binding (tested: about 3 nM) | no binding (tested: about 3 nM) | no binding (tested: about 3 nM) | no binding (tested: about 3 nM) |  |  |
| chimeric antibody 43B7A4 (antibody, human IgG1, kappa, V domains shown) VH: QIQLVQSGPELKKPGETVKISCKASGYTFTTYGMSWVKQAPGKGLKWMGWIHTYSGVPTYADDFKGRFAFSLETSASTAFLQINNLKNEDTATYFCARGLYGVDYWGQGTTLTVSS VL: NIVMTQSPKSMSMSVGERVTLSCKASENVVTYVSWYQQKPEQSPKLLIYGASNRYTGVPDRFTGSGSATDFTLTISSVQAEDLADYHCGQSYTYPYTFGGGTTLEIKR |  |  |  |  |  |  | binds | binds |

Source: patent publication US11912777
